# Reference: PubChem BioAssay AID2685 (National Center for Advancing Translational Sciences (NCATS), 2010)
# The list shows a part of the results. These are further read-outs of the screen, such as a control signal, another cell line or another target. No call is given for them. Most of these compounds were active or inconclusive in the main read-out, so they are no random draw. The note in brackets gives the kind of curve behind each potency; many fits are weak.
# Test: qHTS Assay for Lipid Storage Modulators in Drosophila S3 Cells;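 on cell number change: cells counted by Cell Tracker Red CMTPX staining in the red channel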
# Conditions: BODIPY lipid droplet fluorescence, 18-24 h; for cell number change: measured here: cell count max response, cells fed with added oleic acid
# Method in brief: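 Drosophila S3 cells got compounds at several concentrations plus oleic acid (400 uM solution). Laser-scanning cytometry with 488 nm excitation read lipid droplets at 500-530 nm and cells at 575-640 nm. Percent activity was relative to 20 uM Triacsin C.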
# [1] = measured here: lipid fluorescence (Fed channel) AC50, cells fed with added oleic acid
# [2] = measured here: cell number channel AC50, cells fed with added oleic acid
SMILES,cell number change,AC50 [1],AC50 [2]
Cc1cc(C)c2c(CCl)cc(=O)oc2c1,13.1%,"10.3 µM [rising, partial curve, poor fit]",
COCC(=O)NC1CC(C)(C)Cc2c1cnn2-c1ccc(F)cc1 (stereo not given),0.549%,,
CN(C)c1ccc(C(=O)N2CCNC(=O)C2CC(=O)Nc2ccc(F)cc2)cc1 (stereo not given),4.2%,"3.26 µM [rising, full curve]","2.31 µM [rising, partial curve]"
Cn1c(=O)c(Oc2ccc(Cl)cc2)c(O)c2ccccc21,7.63%,"0.13 µM [rising, full curve, poor fit]",
C/C(CC(C)(C)C1CCCCC1)=N\NC(N)=S,-72.4%,"29.1 µM [falling, single point]","20.6 µM [falling, single point]"
Cn1c(=O)c2c(nc(NCc3ccco3)n2Cc2ccccc2Cl)n(C)c1=O,-29.5%,,"2.31 µM [falling, full curve, poor fit]"
COC(=O)c1ccc(N2CN=C(c3ccc(C)cc3)NC2=S)cc1,47.6%,,"29.1 µM [rising, single point]"
CCC(O)c1cc2c(cc1NC(=O)c1ccc(C)cc1)OCCO2 (stereo not given),16%,"29.1 µM [falling, single point]",
Cn1c(SCc2ccccc2)nnc1-c1c[nH]c2ccccc12,,"6.51 µM [rising, single point]",
Cc1ccc(OCC(=O)N(Cc2ccccc2)c2c(N)n(Cc3ccccc3)c(=O)[nH]c2=O)c(C)c1,-75.1%,"0.00461 µM [falling, full curve, poor fit]","18.4 µM [falling, partial curve]"
Cc1ccc(C(=O)c2cccc(N)c2)cc1C,47.8%,"7.31 µM [rising, partial curve]","8.2 µM [rising, partial curve]"
Cc1ccc(-c2noc(C3CCCN(S(=O)(=O)c4ccc(S(=O)(=O)N(C)C)cc4)C3)n2)o1 (stereo not given),33.7%,"29.1 µM [rising, single point]","29.1 µM [rising, single point]"
COC(=O)c1cc(S(=O)(=O)Nc2nn(C)c3ccccc23)oc1C,1.19%,,"0.58 µM [falling, single point]"
Cc1ccn(S(=O)(=O)c2ccc(N3CCCC3=O)cc2)n1,16.5%,"29.1 µM [rising, single point]",
CCSc1cc(C)nc2c(-c3ccc(Cl)cc3)c(C)nn12,,"1.3 µM [rising, full curve]","0.731 µM [rising, full curve]"
CC(c1ccncn1)N(C)C(=O)c1ccc2oc(Cc3ccccc3)nc2c1 (stereo not given),-16.8%,"23.1 µM [rising, single point]",
CCn1cc(C(=O)NCc2cccc(F)c2)c(=O)c2cc(F)c(N3CCN(C(=O)c4ccco4)CC3)cc21,1.54%,,
CCC(C)C(NC(=O)[C@@H](NC(=O)c1ccccc1F)C(C)C)C(=O)OC (stereo not given in full),9.78%,,
Cn1cc(/C=C(\C#N)C(=O)Nc2cccc([N+](=O)[O-])c2)c2ccccc21,-40.5%,"20.6 µM [falling, single point]","20.6 µM [falling, single point]"

SMILES,cell number change,AC50 [1],AC50 [2]
Cc1cc(NCCc2ccc(Cl)cc2)n2ncnc2n1,-3.25%,"0.0651 µM [falling, partial curve, poor fit]",
O=C(O)c1ccc(Cn2cc(C(F)(F)F)ccc2=O)cc1,-34.6%,"29.1 µM [falling, single point]",
CC(=O)c1ccc(-n2nnnc2SCC(=O)NC2CCCCC2)cc1,2.42%,"6.51 µM [falling, single point]",
O=C(CN1CCN(C(=O)c2ccccc2)CC1)Nc1ccc(Cl)cc1F,16.5%,,
Cc1ccc(CC(=O)O/N=C(\N)Cc2ccc([N+](=O)[O-])cc2)cc1,-2.9%,"0.146 µM [falling, single point]","0.146 µM [falling, full curve, poor fit]"
O=C(NCC(c1ccco1)N1CCc2ccccc2C1)c1cccc(F)c1 (stereo not given),21%,"6.51 µM [falling, single point]",
COC(=O)Cn1c2ccc(OC)cc2c2nc3ccccc3nc21,104%,"5.17 µM [rising, full curve]","2.59 µM [rising, full curve]"
COc1ccc(C(=O)OCC(=O)N2CCOCC2)cc1S(=O)(=O)N1CCOCC1,9.81%,"0.00517 µM [rising, full curve, poor fit]",
COc1cc(OC)cc(C(=O)Nc2ccc(CN3CCCCC3)cc2)c1,26.2%,"20.6 µM [rising, partial curve]",
Cc1ccc(NC(=O)C(OC(=O)c2ccc(O)cc2)c2ccccc2)cc1Cl (stereo not given),-33.3%,,"29.1 µM [falling, single point]"
Cc1ccc(-n2c(=S)sc3c(=O)n(-c4ccc(F)cc4)c(SCC(=O)O)nc32)cc1C,36.6%,,"29.1 µM [rising, single point]"
Cc1ccc(N2CC(C(=O)Nc3ccc(S(=O)(=O)N4CCCC4)cc3)CC2=O)cc1C (stereo not given),3.95%,,
COc1ccc(NC(=O)C2CCCN(c3c4c(nc5ncnn35)CCC4)C2)cc1 (stereo not given),-52.8%,"10.3 µM [falling, partial curve]","20.6 µM [falling, single point]"
O=S(=O)(c1ccc(Cl)s1)N1CCN(C/C=C/c2ccccc2)CC1,-26.1%,,
CCN1CCN(CCCNC(=O)C2c3ccccc3C(=O)N(c3ccc(OC)cc3)C2c2ccc(OC)cc2)CC1 (stereo not given),-39.4%,,"29.1 µM [falling, single point]"
CC(OC(=O)C1CSC2(C)CCC(=O)N12)C(=O)Nc1cccc(C#N)c1 (stereo not given),-3.5%,,
CCOc1ccc([N+](=O)[O-])cc1CNC1CCCCCCC1,-17.4%,"2.91 µM [falling, full curve]",
Cc1cc(F)ccc1S(=O)(=O)Nc1ccc(O)c(Sc2ncn[nH]2)c1,-12.2%,"20.6 µM [falling, single point]",
CC1CCCC(NC(=O)COC(=O)c2cc(S(=O)(=O)N3CCCCC3)ccc2N2CCOCC2)C1C (stereo not given),,"0.13 µM [falling, full curve, poor fit]",

# Just cell number change and AC50 [1], for 2 of the compounds above:
SMILES | cell number change | AC50 [1]
CCN1CCN(CCCNC(=O)C2c3ccccc3C(=O)N(c3ccc(OC)cc3)C2c2ccc(OC)cc2)CC1 (stereo not given) | -39.4% | 
CC(OC(=O)C1CSC2(C)CCC(=O)N12)C(=O)Nc1cccc(C#N)c1 (stereo not given) | -3.5% | 

# (cont.)

SMILES,cell number change,AC50 [1],AC50 [2]
Cc1c(C)n(Cc2ccc(F)cc2)c2ccc(C(=O)NCCN3CCOCC3)cc12,,"6.51 µM [rising, single point]",
O=C1C2CCCN2C(=O)N1CCCCN1CCN(c2ccc(F)cc2)CC1 (stereo not given),2.08%,"32.6 µM [falling, single point]",
COc1ccccc1NC(=O)C1=C(C)Nc2nc(-c3ccc(N(C)C)cc3)nn2C1c1ccncc1 (stereo not given),-17.3%,"6.51 µM [rising, partial curve, poor fit]","0.731 µM [rising, full curve]"
O=C(CCn1c(=O)c2ccccc2n(CC(=O)NCCC2=CCCCC2)c1=O)NCc1ccco1,,,"6.51 µM [rising, single point]"
CC(C)NC(=S)Nc1c(N)[nH]c(=O)[nH]c1=O,-32.4%,"32.6 µM [falling, single point]","23.1 µM [falling, single point]"
CCOC(=O)N1CCN(C(=O)c2ccc3c(c2)sc2nc(-c4ccc(OC)cc4)cn23)CC1,,,"4.11 µM [rising, partial curve]"
Cc1ncoc1C(=O)N1CCCC(N2CCN(c3ccccc3F)CC2)C1 (stereo not given),1.65%,"0.58 µM [falling, single point]",
CCC(=O)Nc1nc(N)n(-c2ccccc2)n1,-18.6%,"23.1 µM [falling, partial curve]","0.651 µM [falling, full curve, poor fit]"
COc1ccccc1CC(=O)NC1CCC(C)CC1 (stereo not given),1.47%,,
CN(C)S(=O)(=O)N1CCC(Oc2cccc(C(=O)N3CCSCC3)c2)CC1,11.8%,"0.00461 µM [rising, full curve, poor fit]",
CCOc1ccc(C2C(C(=O)Nc3cc(C)on3)c3ccccc3C(=O)N2CCN2CCOCC2)cc1 (stereo not given),1.19%,"6.51 µM [rising, single point]","6.51 µM [rising, single point]"
O=C(COC(=O)Cc1ccc(Br)cc1)NCc1ccc2c(c1)OCO2,-28%,,"0.517 µM [falling, full curve, poor fit]"
CCN(CC)S(=O)(=O)c1ccc(N=Cc2c(C)c(C#N)c(=O)n(C)c2O)cc1,81.7%,"8.2 µM [rising, partial curve]","18.4 µM [rising, single point]"
CSCC[C@H](NC(=O)OC(C)(C)C)C(=O)N1CCC(C(=O)N[C@H](C(=O)O)C(C)C)CC1,-13.4%,"0.00517 µM [falling, full curve]","4.11 µM [falling, single point]"
Nc1nonc1-n1nnc(C(=O)N/N=C/c2cccc(F)c2)c1-c1ccccc1,-10.5%,,
CC(C)COc1ccc(C(=O)Nc2sc3c(c2C(=O)O)CC(C)(C)OC3)cc1,-23%,,"8.2 µM [falling, partial curve, poor fit]"
COc1ccc(N2CC(C)Cn3c2nc2c3c(=O)n(CCN3CCOCC3)c(=O)n2C)cc1 (stereo not given),,"29.1 µM [falling, single point]",
CCOC(=O)c1cnn(-c2nc3c(C)cccc3s2)c1C(F)(F)F,-20.6%,"6.51 µM [rising, single point]",
O=C(OCC(=O)N1CCCCCC1)c1ccc(Cl)c(S(=O)(=O)N2CCCC2)c1,8.12%,"0.731 µM [rising, full curve, poor fit]","2.06 µM [rising, partial curve, poor fit]"
